A short description of the assay: qHTS Assay to Find Inhibitors of Chronic Active B-Cell Receptor Signaling. As to conditions: ABC-DLBCL IkBa-CBG/CBR reporter, luminescence ratio (green luciferase fused to IkBa over red control in TMD8 lymphoma cells), 4 h. The gist of the method:
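Cell line TMD8 (human ABC DLBCL), stably expressing tet-inducible CBG68-IkBa fusion and CBR; IMDM/0.5% FBS; cpd up to 46 uM; dox induction, 4 h, 37C/5% CO2; dual luminescence; green/red ratio; MG132 control.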

[1] abbreviates: measured here: CBR red luminescence, cell number.
Where [2] appears, read: measured here: IkBa-CBG green luminescence.

The list shows a part of the results. Shown are side measurements of this screen, not its main read-out; they come without a call. Compounds called inactive in the main read-out are mostly missing here. Words in brackets tell the shape of the fitted curve; partial curves, single points and poor fits give uncertain potencies.

As usually defined, the AC50 is the midpoint of the concentration-response curve, whichever way the signal moves. As for `OCC1(CCOc2ccccc2)CCN(Cc2cn[nH]c2-c2ccc(F)cc2)CC1`, the AC50 under setting [1] was 14.1 µM [falling, partial curve, poor fit].
Turning to `Fc1ccc(Cn2c(-c3cccc(Br)c3)nc3ccccc32)cc1`, the AC50 under setting [1] was 1.41 µM [falling, full curve, poor fit].
For `CC(=O)/C(N=Nc1ccc2c(c1)OCO2)=C(\C)O`, the AC50 under setting [1] is 18.4 µM [rising, partial curve, poor fit].
On to `O=c1[nH]nc(SCc2cc(Cl)ccc2Cl)c(=O)[nH]1`, for which the AC50 under setting [1] was 35.5 µM [rising, single point].
`CCN(CC)CCOC(=O)c1ccc(NC(=O)CCCN2C(=O)S/C(=C/c3ccc(OC)cc3)C2=S)cc1`: the AC50 under setting [1] is 0.501 µM [falling, full curve, poor fit].
As to `CCCCNC(=O)COc1ccccc1[N+](=O)[O-]`, under setting [1], the half-maximal activity concentration (AC50) is 11.6 µM [rising, partial curve, poor fit].
In the case of `O=C(Nc1nnc(-c2ccco2)o1)c1ccc(N2C(=O)CCC2=O)cc1`, the AC50 under setting [1] was 15.8 µM [falling, partial curve, poor fit].
The same measure, in the same setting: the same measure for `O=[N+]([O-])c1ccccc1-c1ccc(C(=S)N2CCN(c3ccccc3)CC2)o1`: 22.4 µM [rising, single point]; for `CC(C)(CN=C1NS(=O)(=O)c2ccccc21)CNC(=O)c1ccccc1`: 35.5 µM [falling, partial curve, poor fit]; for `CCOC(=O)c1ccc(NC(=S)N2CCCC(C(=O)N3CCCC3)C2)cc1` (stereo unspecified): 5.01 µM [falling, partial curve].
Regarding `Cc1ccc2c(c1)[C@H]1[C@H](CO2)[C@H](c2ccccc2)[C@]2(C)C(=O)Nc3cc(Cl)ccc3C(=O)N12`, the AC50 under setting [1] was 3.66 µM [falling, full curve].
Still for that read-out and setting: the same measure for `O=C(CCCN1C(=O)/C(=C\c2ccccc2)SC1=S)Nc1ccc(C(=O)O)cc1`: 2.24 µM [falling, full curve]; for `O=C(CCN1C(=O)/C(=C/c2ccccc2)SC1=S)NCCc1ccc(O)cc1`: 35.5 µM [rising, single point].
Take `CCOc1ccc(Nc2cc(C)nc(-n3nc(C)cc3C)n2)cc1`: the concentration at half-maximal activity (AC50) runs as follows: under setting [1], 3.98 µM [rising, full curve, poor fit]; under setting [2], 8.91 µM [falling, partial curve].
On to `COc1ccc(S(=O)(=O)N(C(C)=O)c2ccc(OC(C)=O)c3ccccc23)cc1[N+](=O)[O-]`, for which, under setting [1], the AC50 was 18.4 µM [falling, single point].
Consider `Cc1ccc(C(=O)c2c(NC(=O)CSc3nnc(N)s3)sc3c2CCCC3)cc1`, for which the AC50 under setting [1] is 11.6 µM [falling, partial curve].
Turning to `Brc1ccc(-c2csc(/N=C/N3CCCC3)n2)cc1`, the AC50 under setting [1] is 1 µM [rising, full curve, poor fit].
Still for that read-out and setting: the same measure for `COc1ccc(NC(=O)c2cccc3c2C(=O)c2ccc(-c4cnc(OC)nc4)cc2S3(=O)=O)cc1`: 2.06 µM [falling, full curve, poor fit].
For `O=C(Nc1ccc2oc(-c3ccccc3F)nc2c1)c1ccc2c(c1)OCCO2`, the AC50 under setting [1] is 10 µM [falling, partial curve, poor fit].
Consider `COc1cccc(C(=O)NN2C(=O)C3C4C=CC(O4)C3C2=O)c1` (stereo unspecified), for which the AC50 under setting [1] is 11.6 µM [falling, partial curve, poor fit].
In the case of `Cc1cc(N/N=C/c2ccccc2Cl)nc(NCc2ccccc2)n1`, the AC50 under setting [1] was 29.1 µM [falling, single point].
For the molecule `Cc1cccc(C)c1NC(=O)CCS(=O)(=O)c1cccc2nsnc12`, the AC50 under setting [1] is 25.9 µM [rising, single point].
Take `O=C(CS(=O)(=O)c1cn(CC(=O)N2CCOCC2)c2ccccc12)Nc1ccccc1F`: the half-maximal activity concentration (AC50) under setting [1] was 7.08 µM [falling, partial curve, poor fit].
Regarding `CSc1ccc(NC(=O)NCc2ccccc2)cc1`, the AC50 under setting [1] was 2.24 µM [falling, full curve].
Still for that read-out and setting: the same measure for `O=C(Nc1ccc(-c2nnn(CC(=O)N3CCN(C(=O)c4ccco4)CC3)n2)cc1)c1ccc(F)cc1`: 17.8 µM [falling, single point]; for `O=C(CCC1CCCC1)NC1CCCCC1`: 0.82 µM [falling, full curve, poor fit].
`O=C(NN=C1CCCC1)c1ccccc1O`: the AC50 under setting [1] is 2 µM [falling, full curve].
Consider `CCOc1ccccc1NC(=O)c1nc2nc(C)cc(C(F)F)n2n1`, for which the AC50 under setting [1] was 3.98 µM [falling, partial curve, poor fit].
As to `O=C(Nc1ccc2nc(-c3cccs3)[nH]c2c1)c1cccs1`, the AC50 runs as follows: under setting [1], 18.4 µM [falling, partial curve, poor fit]; under setting [2], 9.2 µM [rising, partial curve, poor fit].
With `COc1ccc(S(=O)(=O)Nc2ccccc2OC)cc1NC(=O)c1cc2ccccc2oc1=O`, under setting [1], the AC50 was 29.1 µM [falling, single point].
As for `O=S(=O)(NCc1nc(-c2ccccc2)no1)c1ccc(F)cc1`, the AC50 under setting [1] is 3.55 µM [rising, partial curve, poor fit].
Consider `COc1ccc2c(c1)cc(C)c1nnc(SCC(=O)N3CCN(C(=O)c4ccco4)CC3)n12`, for which the AC50 under setting [1] is 14.1 µM [rising, partial curve, poor fit].
Take `CC(C)Cc1nnc(NC(=O)C2CCCC2)s1`: the AC50 was 3.55 µM [rising, partial curve] under setting [1] and 6.31 µM [falling, single point] under setting [2].
For `COc1cc(C(CC(=O)Nc2cccc(C)n2)N2Cc3ccccc3C2=O)cc(OC)c1OC` (stereo unspecified), the AC50 under setting [1] was 3.98 µM [rising, full curve, poor fit].
As for `COc1ccc(Cl)cc1N1C(=O)/C(=C\c2sccc2C)N=C1SCC(=O)NC1CC1`, the AC50 under setting [1] was 18.4 µM [falling, single point].
`Cc1cnc(NC(=O)c2cccs2)s1`: the AC50 under setting [1] was 4.47 µM [falling, partial curve, poor fit].
Regarding `COc1cc2c(cc1OC)C(SC)=NC(C)(C)C2`, the concentration at half-maximal activity (AC50) under setting [2] was 18.4 µM [falling, partial curve, poor fit].
For `Oc1ccc(Cl)cc1/C=C/c1ccc2cccc(O)c2n1`, the AC50 reads like this: under setting [1], 11.2 µM [rising, partial curve]; under setting [2], 28.2 µM [falling, single point].
`COc1ccc(-c2nnc(SCC(=O)NCc3cccs3)n2CC(C)C)cc1`: under setting [1], the AC50 is 3.66 µM [falling, partial curve, poor fit].
Take `Cc1ccc(S(=O)(=O)N(CCc2ccccc2)CC(=O)Nc2cc(C)ccc2C)cc1`: under setting [1], the AC50 was 0.562 µM [rising, full curve, poor fit].
As to `Cc1cc(F)ccc1NS(=O)(=O)c1c(C)nc2scc(C)n2c1=O`, the AC50 under setting [1] is 6.31 µM [rising, single point].
In the case of `CC(C)OCCCN(CC(O)c1ccccc1)CC(O)c1ccccc1` (stereo unspecified), the AC50 under setting [1] is 4.61 µM [rising, full curve, poor fit].
For `C=CCn1c(COc2ccc(Cl)cc2)nnc1SCc1ccc(C#N)cc1`, under setting [1], the AC50 was 14.1 µM [falling, single point].
As for `COc1c2ccoc2c(OC(C)=O)c2oc(C)cc(=O)c12`, the concentration at half-maximal activity (AC50) under setting [1] is 5.01 µM [rising, full curve, poor fit].
As for `COc1ccc(-c2cc(-c3ccccc3)c(C#N)c(S(C)(=O)=O)n2)cc1`, the AC50 under setting [1] is 29.1 µM [rising, single point].
Consider `Cc1ccc(CN2CCN(CC(=O)NCc3ccc(Cl)cc3)C2=O)cc1`, for which the AC50 under setting [1] is 11.6 µM [falling, single point].
For `CCOC(=O)c1c(N)sc(C(C)=O)c1C`, the concentration at half-maximal activity (AC50) under setting [2] is 17.8 µM [falling, partial curve, poor fit].
For `Cc1nc(NC(=O)c2ccccc2)sc1-c1csc(Nc2cccc(Cl)c2)n1`, the AC50 under setting [1] was 0.398 µM [rising, partial curve, poor fit].
For `COc1ccc2c(c1OC)C(=O)N(c1cccc(C(F)(F)F)c1)C2`, the AC50 under setting [1] is 2.06 µM [rising, full curve, poor fit].
Take `O=C(C1CCCO1)N1CCC(O)(c2ccccc2)CC1` (stereo unspecified): the AC50 under setting [1] is 0.708 µM [rising, partial curve].
Turning to `CC(=O)Oc1ccc(OC(C)=O)c2c1CC(C)=C(C)C2`, the AC50 under setting [1] is 10 µM [falling, partial curve].
For `COc1ccc(Cl)cc1N=Cc1c(O)c2ccccc2oc1=O`, the AC50 under setting [1] was 2.51 µM [falling, full curve, poor fit].
The same measure, in the same setting: the same measure for `O=C(O)c1cc(N/N=C/C=C/c2ccccc2[N+](=O)[O-])ccc1Cl`: 15.8 µM [falling, partial curve]; for `Fc1ccccc1Nc1nc2ccccc2n2nnnc12`: 0.13 µM [falling, full curve]; for `COC(=O)c1c(F)c(F)c(N2CCOCC2)c(F)c1F`: 0.116 µM [rising, full curve, poor fit].
On the same count and under the same terms, the same measure for `CCOc1cc(C(c2c(C)[nH][nH]c2=O)c2c(C)[nH][nH]c2=O)ccc1OCc1ccc([N+](=O)[O-])cc1`: 16.4 µM [falling, single point].
With `COC(=O)c1cc2oc(C)cc2n1CC(=O)Nc1ccc(OC)c(OC)c1OC`, under setting [1], the AC50 is 0.112 µM [rising, full curve, poor fit].
With `COc1ccc(-c2nn(C)c(=O)c3ccccc23)cc1CNC(=O)c1ccco1`, the AC50 under setting [1] is 32.6 µM [rising, single point].
In the case of `O=C(NCCc1ccccc1)c1n[nH]c(=O)c2ccccc12`, the AC50 under setting [1] was 20 µM [falling, partial curve, poor fit].
The same measure, in the same setting: the same measure for `CSc1nnc(-c2ccco2)n1-c1ccccc1`: 35.5 µM [rising, single point]; for `CC(=O)c1ccccc1NCC(=O)Nc1ccc(C)cc1`: 20 µM [falling, partial curve, poor fit].
Turning to `C[C@H](CO)N1C[C@H](C)[C@@H](CN(C)S(=O)(=O)c2ccccc2)Oc2c(NC(=O)Nc3ccc4c(c3)OCO4)cccc2C1=O`, the AC50 under setting [1] was 32.6 µM [falling, single point].
